Data published in patent publication US20230270881A1, “ONCOGENIC TRIM37 IS A TARGETABLE EPIGENETIC DRIVER OF METASTASIS AND LINKS CHEMORESISTANCE AND METASTATIC FATE IN TRIPLE-NEGATIVE BREAST CANCER” (University of Virginia Patent Foundation, priority 2020, published 2023).
At least one compound was matched to its structure with a doubt left.

Tested on: TRIM37
Assay: Immunoblotting of TRIM37 in treated cells
Assay type: cell-based, human
Details: TNBC cells
Method: Immunoblotting. Cell extracts were prepared by lysing cell pellet in RIPA buffer supplemented with 1 mM sodium ortho-vanadate and 10 mM PMSF. To prepare protein extract from mouse tissue, it was homogenized in lysis buffer (1% SDS, 1 mM sodium ortho-vanadate, 10 mM Tris pH 7.4 and protease inhibitor). Immunoblots were probed using antibodies against TRIM37 (Abcam), PARP (Cell Signaling Technology), p21 (Cell Signaling Technology), γ-ph-H2AX (Cell Signaling Technology), RAD51C (Invitrogen), ph-ATM (Cell Signaling Technology), ph-STAT1 (Cell Signaling Technology), ph-STAT3 (Cell Signaling Technology), ph-STAT5 (Cell Signaling Technology), BIM (Abcam), FOLR1 (R&D) and α-tubulin (Invitrogen).

`Cn1nnc2c(C(N)=O)ncn2c1=O` [temozolomide] was tested, and the “TRIM37 expression post-treatment relative to DMSO” value was “increased TRIM37 expression”.
